Assay results published in publication PMC4653036.

Tested on: TCF7 + AF1q (MLLT11)
Assay: EMSA supershift
Conditions: MCF10a nuclear extract 5 ug, poly(dI-dC) 50 ng, anti-AF1q and anti-TCF7 antibodies; 10 ul: 5 ug nuclear extract, 1X binding buffer (Signosis kit), 50 ng poly(dI-dC), 20 ng probe, 30 min room temperature; 6% PAGE in 0.5X TBE; pH and salt not given; protein in an extract; label: Alexa 488

“CTTTTCCTTTGAGGCCTGCCTCAA (double strand) [CD44 promoter region probe (TCF7/LEF1 motif)]”: binds.

For at least one entry, the source does not settle the construct or the ends of the probe. At least one result comes from cells or an extract, where the contact may be indirect.
